Test results from publication PMC11157767 (Molecular Cancer, 2024).
Further values from the same series stand in other lists.

System: TFG-MET allograft tumors
Assay: RNA-sequencing, differential expression and GSEA of TFG-MET allograft tumors
Type: in vivo, mouse
Conditions: CAP v Veh
Procedure: Error bars display standard error of mean, statistical significance was determined using t-test analysis. (****;p<0.0001, ***;p<0.001, **;p<0.01, *;p<0.05). […] Each dot represents an individual replicate. Error bars display standard error of the mean.
Each dot represents one gene.

SMILES: CNC(=O)c1ccc(-c2cnc3ncc(Cc4ccc5ncccc5c4)n3n2)cc1F [Capmatinib]
- ES (GOMF_GTPASE_BINDING): -0.307
- NES (GOMF_GTPASE_BINDING, padj 0.0790502): -1.379
- ES (GOMF_GUANYL_NUCLEOTIDE_EXCHANGE_FACTOR_ACTIVITY): -0.3145
- NES (GOMF_GUANYL_NUCLEOTIDE_EXCHANGE_FACTOR_ACTIVITY, padj 0.0854011): -1.393
- ES (GOMF_G_PROTEIN_COUPLED_CHEMOATTRACTANT_RECEPTOR_ACTIVITY): 0.6196
- NES (GOMF_G_PROTEIN_COUPLED_CHEMOATTRACTANT_RECEPTOR_ACTIVITY, padj 0.00152281): 2.249
- ES (GOMF_G_PROTEIN_COUPLED_RECEPTOR_ACTIVITY): 0.2666
- NES (GOMF_G_PROTEIN_COUPLED_RECEPTOR_ACTIVITY, padj 0.000282843): 1.567
- ES (GOMF_HELICASE_ACTIVITY): -0.64
- NES (GOMF_HELICASE_ACTIVITY, padj 4.89838e-20): -2.769
- ES (GOMF_HISTONE_BINDING): -0.5265
- NES (GOMF_HISTONE_BINDING, padj 6.40741e-14): -2.371
- ES (GOMF_HISTONE_LYSINE_N_METHYLTRANSFERASE_ACTIVITY): -0.5659
- NES (GOMF_HISTONE_LYSINE_N_METHYLTRANSFERASE_ACTIVITY, padj 0.00141653): -1.972
- ES (GOMF_HISTONE_METHYLTRANSFERASE_ACTIVITY): -0.578
- NES (GOMF_HISTONE_METHYLTRANSFERASE_ACTIVITY, padj 4.07841e-5): -2.113
- ES (GOMF_HORMONE_RECEPTOR_BINDING): -0.3216
- NES (GOMF_HORMONE_RECEPTOR_BINDING, padj 0.0880974): -1.395
- ES (GOMF_HYDROLASE_ACTIVITY_ACTING_ON_ESTER_BONDS): -0.2542
- NES (GOMF_HYDROLASE_ACTIVITY_ACTING_ON_ESTER_BONDS, padj 0.0916898): -1.229
- ES (GOMF_IMMUNE_RECEPTOR_ACTIVITY): 0.4106
- NES (GOMF_IMMUNE_RECEPTOR_ACTIVITY, padj 2.36378e-5): 2.046
- ES (GOMF_IMMUNOGLOBULIN_BINDING): 0.7301
- NES (GOMF_IMMUNOGLOBULIN_BINDING, padj 0.000392792): 2.335
- ES (GOMF_IMMUNOGLOBULIN_RECEPTOR_BINDING): 0.5734
- ES (GOMF_INTRAMOLECULAR_TRANSFERASE_ACTIVITY): -0.6685
- NES (GOMF_INTRAMOLECULAR_TRANSFERASE_ACTIVITY, padj 0.000264158): -2.088
- ES (GOMF_KINASE_ACTIVITY): -0.2546
- NES (GOMF_KINASE_ACTIVITY, padj 0.0762355): -1.233
- ES (GOMF_LIGASE_ACTIVITY): -0.4074
- NES (GOMF_LIGASE_ACTIVITY, padj 0.000514149): -1.766
- ES (GOMF_LIGASE_ACTIVITY_FORMING_CARBON_OXYGEN_BONDS): -0.5947
- NES (GOMF_LIGASE_ACTIVITY_FORMING_CARBON_OXYGEN_BONDS, padj 0.000318046): -2.072
- ES (GOMF_LIPASE_ACTIVITY): 0.3866
- NES (GOMF_LIPASE_ACTIVITY, padj 0.000299605): 1.954
- ES (GOMF_LIPID_BINDING): 0.1766
- NES (GOMF_LIPID_BINDING, padj 0.0918501): 1.107
- ES (GOMF_LYSINE_N_METHYLTRANSFERASE_ACTIVITY): -0.5094
- NES (GOMF_LYSINE_N_METHYLTRANSFERASE_ACTIVITY, padj 0.00197843): -1.862
- ES (GOMF_MAP_KINASE_KINASE_KINASE_ACTIVITY): -0.5228
- ES (GOMF_METHYLATED_HISTONE_BINDING): -0.575
- NES (GOMF_METHYLATED_HISTONE_BINDING, padj 5.19742e-6): -2.204
- ES (GOMF_MIRNA_BINDING): -0.6168
- NES (GOMF_MIRNA_BINDING, padj 0.00196305): -1.991
- ES (GOMF_MODIFICATION_DEPENDENT_PROTEIN_BINDING): -0.4094
- NES (GOMF_MODIFICATION_DEPENDENT_PROTEIN_BINDING, padj 0.000709975): -1.763
- ES (GOMF_MRNA_3_UTR_BINDING): -0.5487
- NES (GOMF_MRNA_3_UTR_BINDING, padj 2.40849e-6): -2.181
- ES (GOMF_MRNA_5_UTR_BINDING): -0.7352
- NES (GOMF_MRNA_5_UTR_BINDING, padj 3.19533e-5): -2.252
- ES (GOMF_MRNA_BINDING): -0.5486
- NES (GOMF_MRNA_BINDING, padj 4.89838e-20): -2.5124
- ES (GOMF_NAD_P_H_DEHYDROGENASE_QUINONE_ACTIVITY): 0.5908
- NES (GOMF_NAD_P_H_DEHYDROGENASE_QUINONE_ACTIVITY, padj 3.96987e-6): 2.575
- ES (GOMF_NUCLEAR_HORMONE_RECEPTOR_BINDING): -0.3346
- ES (GOMF_NUCLEASE_ACTIVITY): -0.4291
- NES (GOMF_NUCLEASE_ACTIVITY, padj 2.24652e-5): -1.896
- ES (GOMF_NUCLEOCYTOPLASMIC_CARRIER_ACTIVITY): -0.6591
- NES (GOMF_NUCLEOCYTOPLASMIC_CARRIER_ACTIVITY, padj 0.000115181): -2.145
- ES (GOMF_NUCLEOSOME_BINDING): -0.5073
- NES (GOMF_NUCLEOSOME_BINDING, padj 0.00152684): -1.901
- ES (GOMF_NUCLEOTIDYLTRANSFERASE_ACTIVITY): -0.4822
- NES (GOMF_NUCLEOTIDYLTRANSFERASE_ACTIVITY, padj 4.12475e-5): -2.007
- ES (GOMF_N_METHYLTRANSFERASE_ACTIVITY): -0.4852
- NES (GOMF_N_METHYLTRANSFERASE_ACTIVITY, padj 0.000271158): -1.95
- ES (GOMF_OMEGA_PEPTIDASE_ACTIVITY): -0.4572
- NES (GOMF_OMEGA_PEPTIDASE_ACTIVITY, padj 0.00133141): -1.8407
- ES (GOMF_ORGANIC_CATION_TRANSMEMBRANE_TRANSPORTER_ACTIVITY): 0.5091
- NES (GOMF_ORGANIC_CATION_TRANSMEMBRANE_TRANSPORTER_ACTIVITY, padj 0.0936743): 1.697
- ES (GOMF_OXIDOREDUCTASE_ACTIVITY): 0.2552
- NES (GOMF_OXIDOREDUCTASE_ACTIVITY, padj 1.57379e-7): 1.611
- ES (GOMF_OXIDOREDUCTASE_ACTIVITY_ACTING_ON_NAD_P_H): 0.4324
- NES (GOMF_OXIDOREDUCTASE_ACTIVITY_ACTING_ON_NAD_P_H, padj 1.99489e-5): 2.169
- ES (GOMF_OXIDOREDUCTASE_ACTIVITY_ACTING_ON_NAD_P_H_QUINONE_OR_SIMILAR_COMPOUND_AS_ACCEPTOR): 0.5724
- NES (GOMF_OXIDOREDUCTASE_ACTIVITY_ACTING_ON_NAD_P_H_QUINONE_OR_SIMILAR_COMPOUND_AS_ACCEPTOR, padj 2.1943e-6): 2.564
- ES (GOMF_P53_BINDING): -0.4895
- NES (GOMF_P53_BINDING, padj 0.0022957): -1.862
- ES (GOMF_PEPTIDASE_REGULATOR_ACTIVITY): 0.2445
- NES (GOMF_PEPTIDASE_REGULATOR_ACTIVITY, padj 0.0995416): 1.297
- ES (GOMF_PEPTIDE_RECEPTOR_ACTIVITY): 0.272
